One molecule from paper doi:10.1101/2021.08.17.456253 can be followed below.

Chains of the proteins cited; added tags and fusions are not shown.
UniProt Q8CJG0: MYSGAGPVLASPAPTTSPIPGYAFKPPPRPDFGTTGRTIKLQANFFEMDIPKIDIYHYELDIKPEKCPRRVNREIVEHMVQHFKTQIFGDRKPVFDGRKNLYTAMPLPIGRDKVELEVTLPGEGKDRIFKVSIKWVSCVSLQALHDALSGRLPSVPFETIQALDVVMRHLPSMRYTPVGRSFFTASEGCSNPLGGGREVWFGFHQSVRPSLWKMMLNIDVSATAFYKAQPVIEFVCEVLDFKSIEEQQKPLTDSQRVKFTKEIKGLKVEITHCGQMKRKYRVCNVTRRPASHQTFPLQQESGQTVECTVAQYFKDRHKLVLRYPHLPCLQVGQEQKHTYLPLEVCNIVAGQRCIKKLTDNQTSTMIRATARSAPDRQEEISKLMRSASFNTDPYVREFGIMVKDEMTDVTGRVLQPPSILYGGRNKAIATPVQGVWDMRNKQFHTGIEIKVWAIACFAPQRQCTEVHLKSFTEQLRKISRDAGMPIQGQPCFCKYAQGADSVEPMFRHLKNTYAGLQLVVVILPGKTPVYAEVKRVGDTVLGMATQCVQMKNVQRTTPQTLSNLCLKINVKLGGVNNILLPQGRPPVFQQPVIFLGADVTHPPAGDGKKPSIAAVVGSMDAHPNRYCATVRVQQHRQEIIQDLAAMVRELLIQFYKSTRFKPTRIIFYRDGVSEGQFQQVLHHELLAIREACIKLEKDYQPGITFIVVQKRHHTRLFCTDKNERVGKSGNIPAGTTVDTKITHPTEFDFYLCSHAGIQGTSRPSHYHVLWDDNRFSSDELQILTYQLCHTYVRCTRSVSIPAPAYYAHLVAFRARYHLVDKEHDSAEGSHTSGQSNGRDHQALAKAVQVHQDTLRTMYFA

The target of the assay is Argonaute RISC Catalytic Component 2 (AGO2) (mouse (endogenous in round spermatids)) (UniProt Q8CJG0). Briefly: affinity purification with mass spectrometry.

Results are given in words; binding and its absence hold for the method and conditions named. Binding seen in cells or lysates may run through a third protein. A yes stands for co-enrichment or nearness to the bait. Other partners may have been found.

B1: nuclear export factor NXF1 (protein, UniProt Q99JX7 1-618)
chain: MADEGKSYNEHDDRVSFPQRRKKGRGPFRWKCGEGNRRSGRGGSGVQSSRFEEDDGDVAMNDPQDGPRVRYNPYTNRPNRRGDGWHDRDRIHITVRRDRAPAERGGAGTSQDGTTKNWFKITIPYGRKYDKTWLLSMIQSKCSVPFNPIEFHYENTRAHFFVEDATTASALKGVNHKIQDRENRRISIIINASAPPYTVQNELKPEQIEQLKLIMSKRYDGNQQALDLKGLRSDPDLVAQNIDVVLNRRSCMAATLRIIEENIPELLSLNLSSNRLYKLDDMSSIVQKAPNLKTLNLSGNELKTERELDKIKGLKLEELWLDRNPMCDNFGDQSSYISAIRERFPKLLRLDGHELPPPISFDVEAPTMLPPCKGSYFGTENLKSLVLRFLQQYYVIYDSGDRQGLLYAYHDGACCSLSIPYNPQNPVRKNLAEYVKDSRNVKKLKEPTQRFRLLKHTRLNVVAFLNELPKTQHDVNAFVVDISAQTSTLLCFSVNGVFKEVDGKSRDSLRAFTRTFIAVPASNSGLCIVNDELFVRNASPEEIQRAFAMSAPTPSSSPVPTLSPEQQEMLQAFSTQSGMNLEWSQKCLQDNNWDYTRSAQAFTLLKAKGEIPEVAFMK
As for B1, the binding result is on record as “binds”.
